Assay results from the supplement of paper PMC4862054.
Most values lie at the level of the controls, where differences are scatter.

Legend:
Experiment in all cases: normalised response (% of control), CellTox Green; higher = less cell death (100 = DMSO, 0 = benzethonium chloride kill control)
Settings in all cases: incubation time: 72 h
[1] = tested on: HCC1599
Protocol: (§1)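 DSRT, 72 h incubation, CellTox Green / CellTiter-Glo readout. Signal is normalised to DMSO and benzethonium chloride controls. Value is the normalised response at dose 2.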

[2] = tested on: Hs578T
Protocol: as §1

[3] = tested on: CAL-148
Protocol: as §1

[4] = tested on: BT-474
Protocol: as §1

[5] = tested on: CAL-51
Protocol: as §1

[6] = tested on: DU-4475
Protocol: as §1

[7] = tested on: MDA-MB-468
Protocol: as §1

[8] = tested on: HCC1143
Protocol: as §1

[9] = tested on: MDA-MB-453
Protocol: as §1

[10] = tested on: MDA-MB-436
Protocol: as §1

[11] = tested on: HCC1937
Protocol: as §1

[12] = tested on: MFM-223
Protocol: as §1

[13] = tested on: CAL-120
Protocol: as §1

[14] = tested on: CAL-85-1
Protocol: as §1

[15] = tested on: BT-549
Protocol: as §1

[16] = tested on: MDA-MB-231
Protocol: as §1

[17] = tested on: HDQ-P1
Protocol: (§2)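 DSRT, 72 h incubation, CellTox Green / CellTiter-Glo readout. Signal is normalised to DMSO and benzethonium chloride controls. Value is the normalised response at the lowest tested concentration.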

[18] = tested on: Hs578T; remark: listed apart in the source
Protocol: as §2

[19] = tested on: CAL-148; remark: listed apart in the source
Protocol: as §2

[20] = tested on: BT-474; remark: listed apart in the source
Protocol: as §2

[21] = tested on: CAL-51; remark: listed apart in the source
Protocol: as §2

[22] = tested on: DU-4475; remark: listed apart in the source
Protocol: as §2

[23] = tested on: MDA-MB-468; remark: listed apart in the source
Protocol: as §2

[24] = tested on: HCC1143; remark: listed apart in the source
Protocol: as §2

[25] = tested on: MDA-MB-453; remark: listed apart in the source
Protocol: as §2

[26] = tested on: MCF-10A
Protocol: as §2

[27] = tested on: CAL-120; remark: listed apart in the source
Protocol: as §2

[28] = tested on: CAL-85-1; remark: listed apart in the source
Protocol: as §2

[29] = tested on: BT-549; remark: listed apart in the source
Protocol: as §2

[30] = tested on: MDA-MB-231; remark: listed apart in the source
Protocol: as §2

[31] = tested on: HCC1599; remark: listed apart in the source
Protocol: as §2

[32] = tested on: MDA-MB-436; remark: listed apart in the source
Protocol: as §2

[33] = tested on: MFM-223; remark: listed apart in the source
Protocol: as §2

Row | Structure (SMILES) | normalised response [1] | normalised response [2] | normalised response [3] | normalised response [4] | normalised response [5] | normalised response [6] | normalised response [7] | normalised response [8] | normalised response [9] | normalised response [10] | normalised response [11] | normalised response [12] | normalised response [13] | normalised response [14] | normalised response [15] | normalised response [16] | normalised response [17] | normalised response [18] | normalised response [19] | normalised response [20] | normalised response [21] | normalised response [22] | normalised response [23] | normalised response [24] | normalised response [25] | normalised response [26] | normalised response [27] | normalised response [28] | normalised response [29] | normalised response [30] | normalised response [31] | normalised response [32] | normalised response [33]
1 | Nc1ccn([C@@H]2O[C@H](CO)[C@@H](O)[C@@H]2O)c(=O)n1 [Cytarabine] (10 nM) | 112% | 128% | 112% | 104% | 101% | 105% | 122% | 105% | 102% | 107% | 87.8% | 107% | 106% | 103% | 107% | 125% | – | – | – | – | – | – | – | – | – | – | – | – | – | – | – | – | –
2 | CCc1cncnc1N1CCN(Cc2nc3ccc(C(F)(F)F)cc3[nH]2)CC1 (10 nM) | 111% | 56.6% | 106% | 101% | 108% | 106% | – | – | 73.2% | 81.3% | 103% | 104% | 105% | 94.4% | 97.9% | 105% | – | – | – | – | – | – | – | – | – | – | – | – | – | – | – | – | –
3 | Cn1cnc2c(F)c(Nc3ccc(Br)cc3Cl)c(C(=O)NOCCO)cc21 [Selumetinib] (1 nM) | – | – | – | – | – | – | – | – | – | – | – | – | – | – | – | – | 56.3% | 85.4% | 100% | 98.7% | 109% | 93.3% | 71.2% | 80.4% | 96.1% | 90.3% | 96.1% | 104% | 94.7% | 92.5% | – | – | –
4 | CN(c1ccccc1CNc1nc(Nc2ccc3c(c2)CC(=O)N3)ncc1C(F)(F)F)S(C)(=O)=O (1 nM) | – | – | – | – | – | – | – | – | – | – | – | – | – | – | – | – | 105% | 75% | 92.3% | 97.2% | 98.1% | 98% | 123% | 62.3% | 99% | – | 95.5% | 95.8% | 86% | – | 99.5% | 96.8% | 103%
5 | CO[C@@]12[C@H](COC(N)=O)C3=C(C(=O)C(C)=C(N)C3=O)N1C[C@@H]1N[C@@H]12 [Mitomycin C] (1 nM) | – | – | – | – | – | – | – | – | – | – | – | – | – | – | – | – | 85.7% | 62.6% | 93.3% | 92.7% | 101% | 94.2% | – | 100% | 101% | 72% | 99.1% | 108% | 92.7% | 96.6% | 81.2% | 99.4% | 100%
